One substance from patent publication US4933323 (dated 1990) can be followed below.

Some peptides are written in HELM: one residue between dots, names in brackets for other building blocks, links after the first $.

This data set can be described thus: general procedure: Boc solid-phase peptide synthesis; Boc-Lys[Z(2Cl)]-chloromethyl resin, 0.33 mmol/g. The conditions noted are these: whole synthesis.
[1] abbreviates: scale of the general procedure 1.50 g resin.

Substance PEPTIDE1{D.S.D.G.K}$$$$V2.0 came in with a crude mass of 360 mg and an isolated mass of 46.8 mg. Also, under setting [1], the “final purity (method not given)” value is listed as 97% and the isolated yield is listed as 13%.
